The text below walks through data of ChEMBL document CHEMBL2434821, “New phenstatin-fatty acid conjugates: synthesis and evaluation” (Bioorg Med Chem Lett, 2013).

For orientation: IC50 means the concentration at which inhibition is half-maximal.

The assay can be described thus: Cytotoxicity against human H460 cells after 72 hrs by MTT assay. It is filed as functional, cell-based. The note with it: NCI-H460, 72 h. Background: Formazan colour is commonly taken as a measure of viable cells.

Each structure is given as a SMILES string.

Regarding `COc1cc2c(c(OC)c1OC)-c1ccc(OC)c(=O)cc1[C@@H](NC(C)=O)CC2` [COLCHICINE], the IC50 stood at 22 nM.
